Data as given in patent US12692233B2, “Anthelmintic compounds comprising a pyridine structure” (Intervet Inc., priority 2020, dated 2026).
Some entries share one result that the patent states for a list of compounds.

By UniProt entry, the sequences of proteins in these tests, tags left out. Residues count along the entry.
UniProt Q12791, 1-1178 isoform Q12791-5: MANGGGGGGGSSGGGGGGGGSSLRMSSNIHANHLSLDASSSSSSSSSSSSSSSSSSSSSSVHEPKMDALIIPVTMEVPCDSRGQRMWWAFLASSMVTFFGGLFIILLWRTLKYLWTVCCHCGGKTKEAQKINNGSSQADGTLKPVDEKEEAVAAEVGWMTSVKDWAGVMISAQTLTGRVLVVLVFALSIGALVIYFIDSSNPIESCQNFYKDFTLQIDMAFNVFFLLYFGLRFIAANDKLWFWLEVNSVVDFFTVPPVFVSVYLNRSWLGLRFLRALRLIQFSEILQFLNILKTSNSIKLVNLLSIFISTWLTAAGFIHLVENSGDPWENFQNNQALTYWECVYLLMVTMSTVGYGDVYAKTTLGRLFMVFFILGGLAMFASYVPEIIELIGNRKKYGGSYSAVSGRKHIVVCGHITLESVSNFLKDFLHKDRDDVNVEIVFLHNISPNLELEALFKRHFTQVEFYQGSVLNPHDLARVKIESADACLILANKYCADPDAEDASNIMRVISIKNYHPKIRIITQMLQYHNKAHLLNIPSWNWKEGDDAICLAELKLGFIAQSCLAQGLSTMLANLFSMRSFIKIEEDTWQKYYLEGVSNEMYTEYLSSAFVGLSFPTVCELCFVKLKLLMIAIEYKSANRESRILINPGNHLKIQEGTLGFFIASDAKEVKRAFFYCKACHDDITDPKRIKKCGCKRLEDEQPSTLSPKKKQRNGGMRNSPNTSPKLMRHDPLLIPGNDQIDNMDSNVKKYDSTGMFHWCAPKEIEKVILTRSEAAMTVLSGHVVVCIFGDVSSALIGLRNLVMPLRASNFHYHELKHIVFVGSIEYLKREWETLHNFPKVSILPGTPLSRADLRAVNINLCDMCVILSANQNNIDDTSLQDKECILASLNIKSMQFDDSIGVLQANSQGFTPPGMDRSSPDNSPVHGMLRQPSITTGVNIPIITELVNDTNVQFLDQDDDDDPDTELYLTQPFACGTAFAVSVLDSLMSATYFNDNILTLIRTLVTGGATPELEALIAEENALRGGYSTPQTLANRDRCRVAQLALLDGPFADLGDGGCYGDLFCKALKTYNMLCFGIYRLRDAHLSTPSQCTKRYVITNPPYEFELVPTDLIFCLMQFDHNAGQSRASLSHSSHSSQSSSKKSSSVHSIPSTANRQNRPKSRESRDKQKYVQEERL

Columns and labels:
Type in all cases: cell-based
Ascaridia galli = assay: In vitro assay Ascaridia galli larval stage 3; details: larval stage 3, 20 larvae per well, microscopic examination
From the text: (§1) […] galli (intestinal roundworm of chicken), larval stage 3 (“L3”); and Oesophagostumum dentatum (nodular worm of swine), larval stages 3 and 4 (respectively “L3” and “L4”) where suspended in a nutrient medium and distributed to 96 well plates with 20 larvae per well. The wells were spiked DMSO solutions of the compounds with declining concentration.

[1] = biological target: T1, human Maxi K channel (BK channel) (Homo sapiens, UniProt Q12791); assay: Agonistic activity at the human Maxi K channel (BK channel), FLIPR membrane potential in CHO K1 cells; details: CHO K1 cells stably transfected with KCNMA1 and beta1 (KCNMB1) subunits, membrane potential dye
T1 construct: expressed in transfected cells; host or cells: CHO K1
From the text: A CHO K1 cell line was stably transfected with the KCNMA1 (KCa1.1, U11058) and beta1 (KCNMB1) subunits of the human Maxi K channel (Ponte et al, Molecular Pharmacology 2012, 81(4), 567-577).
The complete measurement takes 150 s.

Dirofilaria immitis = assay: In vitro assay Dirofilaria immitis L1 (microfilaria), motility; details: 3 days incubation, reduction in motility vs DMSO
Experimental: (§2) Approximately 500 D. immitis microfilaria were added to a microtiter plate containing a nutrient medium and the test compound in DMSO at varying concentrations. After incubation for 3 days, activity was evaluated as reduction in motility as compared to DMSO as negative control. Compounds were tested in duplicates. Based on the concentration response curves EC50 values were calculated.

Oesophagostumum dentatum = assay: In vitro assay Oesophagostumum dentatum larval stage 3; details: larval stage 3, 20 larvae per well, microscopic examination
From the text: as §1

Acanthocheilonema viteae = assay: In vitro assay Acanthocheilonema viteae L1 (microfilaria), motility; details: 3 days incubation, reduction in motility vs DMSO
Experimental: as §2, with “A. viteae” for “D. immitis”

## O=C(N[C@@H]1CCOc2ccccc21)c1cnc(Sc2cc(Cl)cc(Cl)c2)cc1N1CCOCC1 [Compound 17]
Ascaridia galli
  MEC (minimum effective concentration) against Ascaridia galli L3: ≤ 50 µM
[1]
  EC50: > 30 µM
Dirofilaria immitis
  EC50: < 10 µM

## CN(C)c1cc(Oc2cccc(Cl)c2Cl)ncc1C(=O)N[C@H]1CCOc2ccccc21 [Compound 40]
Oesophagostumum dentatum
  MEC (minimum effective concentration) against Oesophagostumum dentatum L3: ≤ 50 µM
[1]
  EC50: > 30 µM
Acanthocheilonema viteae
  EC50: < 10 µM
Dirofilaria immitis
  EC50: < 10 µM

## CN(C)c1cc(Oc2cccc(Cl)c2Cl)ncc1C(=O)N[C@H]1CCOc2ccccc21 [Compound 41]
[1]
  EC50: > 30 µM
